This assay has as its target low-density lipoprotein receptor-related protein 6 (human (endogenous in bone biopsies)) (UniProt O75581). Briefly: co-IP; lysates of metastatic bone lesions (breast, lung, prostate primaries) and multiple myeloma bone lesions in 1% TX-100, 150 mM NaCl, Tris-HCl pH 8, 1 mM MgCl2 and CaCl2; anti-Dickkopf-1 or anti-Lrp6 antibody (1.5 ug/mL) with Protein A/G PLUS agarose, cold room, 6 hours; Western blot.

Sequences of proteins named here, by UniProt entry; tags and fusion partners are left off. Residues count along the entry.
UniProt O75581, residues 20-1613: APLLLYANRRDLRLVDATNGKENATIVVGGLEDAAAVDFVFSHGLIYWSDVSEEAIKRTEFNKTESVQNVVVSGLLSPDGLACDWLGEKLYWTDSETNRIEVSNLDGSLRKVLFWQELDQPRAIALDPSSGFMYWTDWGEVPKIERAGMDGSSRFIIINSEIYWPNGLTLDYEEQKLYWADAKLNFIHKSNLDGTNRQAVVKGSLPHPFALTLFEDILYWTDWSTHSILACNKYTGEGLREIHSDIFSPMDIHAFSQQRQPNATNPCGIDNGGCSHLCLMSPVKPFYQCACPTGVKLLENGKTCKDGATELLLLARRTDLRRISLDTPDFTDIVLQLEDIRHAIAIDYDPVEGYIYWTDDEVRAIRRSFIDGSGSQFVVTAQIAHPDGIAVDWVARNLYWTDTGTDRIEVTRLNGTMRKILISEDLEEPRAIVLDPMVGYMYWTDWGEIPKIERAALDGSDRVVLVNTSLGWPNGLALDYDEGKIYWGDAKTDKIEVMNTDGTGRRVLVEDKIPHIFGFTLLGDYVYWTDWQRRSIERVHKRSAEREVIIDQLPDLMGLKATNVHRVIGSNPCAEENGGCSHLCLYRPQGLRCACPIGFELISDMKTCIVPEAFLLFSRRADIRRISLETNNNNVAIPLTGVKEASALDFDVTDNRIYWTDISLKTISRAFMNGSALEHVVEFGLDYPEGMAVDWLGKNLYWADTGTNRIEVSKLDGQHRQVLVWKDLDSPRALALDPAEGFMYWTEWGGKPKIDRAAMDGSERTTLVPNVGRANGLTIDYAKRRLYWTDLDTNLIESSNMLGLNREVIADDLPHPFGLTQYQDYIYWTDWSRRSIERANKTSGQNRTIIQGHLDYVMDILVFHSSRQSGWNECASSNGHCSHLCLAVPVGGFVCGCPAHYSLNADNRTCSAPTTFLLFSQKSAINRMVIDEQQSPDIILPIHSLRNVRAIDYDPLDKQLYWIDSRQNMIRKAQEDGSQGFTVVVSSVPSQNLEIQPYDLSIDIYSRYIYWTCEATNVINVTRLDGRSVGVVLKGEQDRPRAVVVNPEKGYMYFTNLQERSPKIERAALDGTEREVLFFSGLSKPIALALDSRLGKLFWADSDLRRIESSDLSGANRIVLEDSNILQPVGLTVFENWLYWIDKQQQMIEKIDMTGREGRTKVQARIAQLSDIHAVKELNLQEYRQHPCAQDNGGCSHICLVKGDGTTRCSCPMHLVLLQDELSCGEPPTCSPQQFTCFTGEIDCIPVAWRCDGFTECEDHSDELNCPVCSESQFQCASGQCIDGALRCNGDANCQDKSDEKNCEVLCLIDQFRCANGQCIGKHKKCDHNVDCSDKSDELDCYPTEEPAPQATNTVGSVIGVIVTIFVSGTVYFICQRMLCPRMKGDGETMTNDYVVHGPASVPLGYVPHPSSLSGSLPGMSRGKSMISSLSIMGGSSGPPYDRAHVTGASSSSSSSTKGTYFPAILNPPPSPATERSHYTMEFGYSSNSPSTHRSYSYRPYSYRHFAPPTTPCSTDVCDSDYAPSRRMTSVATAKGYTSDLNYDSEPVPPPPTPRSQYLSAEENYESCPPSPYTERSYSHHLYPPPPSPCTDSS

These are yes or no findings as the source states them, for the method shown. In cells and extracts the contact can be indirect. Some results given as binding are weak or reduced against the parent protein; the word gives no strength.

B1: Dickkopf-1 (protein, UniProt O94907 32-266)
chain: TLNSVLNSNAIKNLPPPLGGAAGHPGSAVSAAPGILYPGGNKYQTIDNYQPYPCAEDEECGTDEYCASPTRGGDAGVQICLACRKRRKRCMRHAMCCPGNYCKNGICVSSDQNHFRGEIEETITESFGNDHSTLDGYSRRTTLSSKMYHTKGQEGSVCLRSSDCASGLCCARHFWSKICKPVLKEGQVCTKHRRKGSHGLEIFQRCYCGEGLSCRIQKDHHQASNSSRLHTCQRH
With B1, the binding entry is “binds”.

For the origin of these results see publication PMC4998439.
